# Source: PubChem BioAssay AID602196 (INSERM, 2012)
# Screen: 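Modifiers of cisplatin sensitivity in A549 cells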
# System: human A549 lung cancer cells
# Knock-down reagent: siRNA pair against human genes
# Time to read-out: 48 h transfection before cisplatin; time from cisplatin to read-out not stated
# Treatment: cisplatin at a dose killing half of control-siRNA cells; exact dose and duration not given
# Read-out: 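Shift in cisplatin death relative to control siRNA, from -50 (all cells die) to +50 (no cells die); siRNAs harmful on their own scored 0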
# Reading the numbers: two-siRNA summed score (-2 to +2): higher = both siRNAs protect from cisplatin killing; -2 means both sensitise; mean protection from cisplatin (shift in death): higher = protection from cisplatin killing
# Hit rule: 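siRNAs harmful alone (LDH or WST-1) get 0; others get +1 for less and -1 for more cisplatin killing; genes are active when the two siRNAs give the same sign, summing to ±2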
# Meaning of the calls: active = both siRNAs shift cisplatin killing the same way; inactive = no consistent shift, or siRNA harmful alone
# The deposit covers about 23,000 reagents; this is a random part of them. Of all reagents, 455 (2%) were called active. 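Active includes both protection and sensitisation; some change values fall well beyond the stated -50 to +50 range.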 Further read-outs or replicates are left out here. Reagent sequences are not shown. Not given: the amount of reagent.
gene symbol,two-siRNA summed score (-2 to +2),mean protection from cisplatin (shift in death) (%),call
CPA6,0,6.9,inactive
ACR,0,-4.6,inactive
LOC343574,0,9.8,inactive
LOC148418,0,12.6,inactive
PCDHA3,0,5.1,inactive
LOC442275,0,9.8,inactive
SGO2,0,1.2,inactive
CHRNB1,-1,-7.7,inactive
TPD52,0,4,inactive
TSSK6,2,19.5,active
CCDC83,0,8.4,inactive
TRIM32,1,7.9,inactive
ANKRD31,0,5.5,inactive
CAD,1,6.4,inactive
FLAD1,0,4.1,inactive
QKI,-1,-5.2,inactive
CBX5,0,11.6,inactive
MAN2B1,0,-6.8,inactive
MTX1,1,2.3,inactive
TIMM23,0,1.2,inactive
LOC442456,0,8,inactive
SNTG2,0,5.5,inactive
ZNF689,0,0.5,inactive

In a second layout: results already given
gene symbol	two-siRNA summed score (-2 to +2)	mean protection from cisplatin (shift in death) (%)	call
CCDC83	0	8.4	inactive
TRIM32	1	7.9	inactive
ANKRD31	0	5.5	inactive
